Publication PMC7330856

Chains of the proteins cited; added tags and fusions are not shown.
UniProt P22061: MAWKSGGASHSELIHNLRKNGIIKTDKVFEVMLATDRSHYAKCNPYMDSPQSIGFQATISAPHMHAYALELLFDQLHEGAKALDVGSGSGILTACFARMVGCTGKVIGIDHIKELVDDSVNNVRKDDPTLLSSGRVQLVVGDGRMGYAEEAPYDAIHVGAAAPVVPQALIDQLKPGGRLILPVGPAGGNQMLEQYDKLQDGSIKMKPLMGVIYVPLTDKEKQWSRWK

T1: Interferon-induced protein with tetratricopeptide repeats 3 (human (endogenous in L3.6pl and TBO368)) (UniProt O14879)
T1 sequence: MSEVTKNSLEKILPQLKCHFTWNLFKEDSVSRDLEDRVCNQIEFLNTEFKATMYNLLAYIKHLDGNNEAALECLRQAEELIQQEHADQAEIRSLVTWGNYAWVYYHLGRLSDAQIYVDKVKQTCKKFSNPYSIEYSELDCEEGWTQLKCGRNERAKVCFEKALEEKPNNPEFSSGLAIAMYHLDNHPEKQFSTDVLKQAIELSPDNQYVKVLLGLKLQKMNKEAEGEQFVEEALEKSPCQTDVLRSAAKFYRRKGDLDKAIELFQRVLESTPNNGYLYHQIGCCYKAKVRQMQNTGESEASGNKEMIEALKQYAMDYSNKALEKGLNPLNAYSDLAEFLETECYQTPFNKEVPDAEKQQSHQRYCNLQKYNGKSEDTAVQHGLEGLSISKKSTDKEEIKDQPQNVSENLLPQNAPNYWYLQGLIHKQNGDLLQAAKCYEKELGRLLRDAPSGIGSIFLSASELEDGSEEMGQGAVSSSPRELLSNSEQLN


Target: T1, Interferon-induced protein with tetratricopeptide repeats 3 (human (endogenous in L3.6pl and TBO368))
Experiment: affinity purification with mass spectrometry; immunoprecipitation with anti-IFIT3 antibody (normal IgG control) from lysates of L3.6pl and TBO368 cells treated with gemcitabine; IP lysis buffer 25 mM Tris pH 7.4, 150 mM NaCl, 1 mM EDTA, 0.5% NP-40, 5% glycerol; protein A-Dynabeads; nano LC-MS

| Molecule | binding |
| --- | --- |
| PCMT1 (from UniProt P22061 1-227) | binds |
| TM9SF3 (protein, UniProt Q9HD45 29-589) DEHEHTYQDKEEVVLWMNTVGPYHNRQETYKYFSLPFCVGSKKSISHYHETLGEALQGVELEFSGLDIKFKDDVMPATYCEIDLDKEKRDAFVYAIKNHYWYQMYIDDLPIWGIVGEADENGEDYYLWTYKKLEIGFNGNRIVDVNLTSEGKVKLVPNTKIQMSYSVKWKKSDVKFEDRFDKYLDPSFFQHRIHWFSIFNSFMMVIFLVGLVSMILMRTLRKDYARYSKEEEMDDMDRDLGDEYGWKQVHGDVFRPSSHPLIFSSLIGSGCQIFAVSLIVIIVAMIEDLYTERGSMLSTAIFVYAATSPVNGYFGGSLYARQGGRRWIKQMFIGAFLIPAMVCGTAFFINFIAIYYHASRAIPFGTMVAVCCICFFVILPLNLVGTILGRNLSGQPNFPCRVNAVPRPIPEKKWFMEPAVIVCLGGILPFGSIFIEMYFIFTSFWAYKIYYVYGFMMLVLVILCIVTVCVTIVCTYFLLNAEDYRWQWTSFLSAASTAIYVYMYSFYYYFFKTKMYGLFQTSFYFGYMAVFSTALGIMCGAIGYMGTSAFVRKIYTNVKID | binds |

These are yes or no findings as the source states them, for the method shown. Binding seen in cells or lysates may run through a third protein. A yes stands for co-enrichment or nearness to the bait. Other partners may have been found.
